# Some entries share one result that the patent states for a list of compounds.
# Assay: Drug excipients compatibility study: blends stored at 60° C. for 15 days, total impurities by HPLC
# Format: physicochemical
# Settings: excipient intimately blended with bupropion or its salt, ratio about 0.1:1 to about 1:1, stored at 60° C. for 15 days
smiles,measurement,value
O.OC[C@H]1O[C@@H](O[C@H]2[C@H](O)[C@@H](O)C(O)O[C@@H]2CO)[C@H](O)[C@@H](O)[C@H]1O (stereo partly shown) [lactose monohydrate],excipient compatibility class (total impurities of the blend),"compatible (If the total impurities, were less than 2% by weight of bupropion hydrochloride; the excipients were considered as compatible)"

# — US20060204571A1, “Stable compositions of bupropion or its pharmaceutically acceptable salts” (Sun Pharmaceutical Industries Limited, priority 2005, published 2006)
